Assay results reported in PubChem BioAssay AID2551 (National Center for Advancing Translational Sciences (NCATS), 2010).
About 17,000 (5.5%) of roughly 310,000 compounds were called active. The inconclusive results got no clear call from the source; some entries with a clear call stand among them for comparison. Calls come from the whole dose curve; as a rule, active = well fitted inhibition curve with a large enough effect; inconclusive = small, poorly fitted or top-dose-only effect, or effect the other way; inactive = no such curve, though single readings can be large or run the other way. Potencies of inconclusive entries are doubtful fits and often do not repeat.

Chains of the proteins cited; added tags and fusions are not shown. Lines headed by an entry give the natural chain unless they say otherwise; changes in a name come on top.
UniProt P51450: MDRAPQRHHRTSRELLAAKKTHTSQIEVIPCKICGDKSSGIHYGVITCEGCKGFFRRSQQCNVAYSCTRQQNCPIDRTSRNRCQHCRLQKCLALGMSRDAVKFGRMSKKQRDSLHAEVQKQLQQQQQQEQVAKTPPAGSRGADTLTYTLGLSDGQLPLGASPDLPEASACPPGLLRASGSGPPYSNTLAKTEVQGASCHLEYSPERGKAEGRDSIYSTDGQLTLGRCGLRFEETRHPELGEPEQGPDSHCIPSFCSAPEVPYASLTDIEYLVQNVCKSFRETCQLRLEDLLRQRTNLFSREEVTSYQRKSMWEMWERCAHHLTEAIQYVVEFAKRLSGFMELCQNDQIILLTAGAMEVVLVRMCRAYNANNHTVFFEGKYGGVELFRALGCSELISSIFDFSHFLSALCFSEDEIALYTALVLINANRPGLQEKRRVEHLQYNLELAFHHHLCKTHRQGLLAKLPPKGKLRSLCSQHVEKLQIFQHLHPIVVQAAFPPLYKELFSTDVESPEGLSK

Target: Nuclear receptor ROR-gamma (Mus musculus) (UniProt P51450)
Assay: qHTS for inhibitors of ROR gamma transcriptional activity; note: nearly all actives have a fitted effect of over 60% in size
Settings: Drosophila S2 Gal4-RORgamma UAS-luciferase reporter, 20 h; activity change, negative = inhibition: at 53.6 µM (top of the series)
In short: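 Compounds are pin-transferred onto Drosophila Schneider cells expressing a copper-inducible Gal4–ROR gamma transactivation domain fusion. After 1 hr, copper sulfate is added to 700 uM final; luciferase is read 20 hr later.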
% is set by controls: 0 for no effect and ±100 for the full control effect; potency is the fitted concentration of half-maximal effect.

| SMILES | Potency | activity change, negative = inhibition |
| --- | --- | --- |
| Cn1c(-c2ccc(CN3CCCCC3)o2)nc2ccccc21 | inconclusive: 17.8 µM [inhibitor, single point] | – |
| c1ccc(CSc2nnc(-c3c[nH]c4ccccc34)o2)cc1 | inconclusive: 35.5 µM [inhibitor, single point] | – |
| Cn1c(=O)[nH]c(=O)c2c1nc(Br)n2CCC(=O)c1ccccc1 | inactive | – |
| CN(CC(=O)NC1CCCCC1)S(=O)(=O)c1ccc(Cl)cc1 | inconclusive: 5.01 µM [activator, single point] | – |
| C/C(=N\NC(=O)COc1ccc(C(C)(C)C)cc1)c1cc2ccccc2o1 | inconclusive: 10 µM [inhibitor, partial curve, poor fit] | – |
| COc1ccc(C(C(=O)NC2CCCCC2)N(C(=O)CCl)c2cccc(Cl)c2)cc1 (centres undefined) | – | inactive: -30.4% [at 10 µM] |
| COc1cc(C2CC(=O)c3c([nH]c(C(=O)OCCOC(C)C)c3C)C2)cc(OC)c1OC (centres undefined) | inconclusive: 11.2 µM [activator, partial curve] | – |
| N#Cc1c(-c2ccc(F)cc2)noc1N | inconclusive: 0.501 µM [inhibitor, full curve] | – |
| CC(C)n1c(C(O)c2ccc3c(c2)OCO3)nc2ccccc21 (centres undefined) | inconclusive: 15.8 µM [inhibitor, single point] | – |
| O=S(=O)(c1cccc2nonc12)N1CCN(c2ccc(F)cc2)CC1 | inconclusive: 11.2 µM [inhibitor, partial curve, poor fit] | – |
| O=C(NC(=S)Nc1ccccc1[N+](=O)[O-])c1ccccc1 | inconclusive: 35.5 µM [inhibitor, single point] | – |
| CC(C)(C)CC(C)(C)NC(=O)Nc1cccc([N+](=O)[O-])c1 | inconclusive: 14.1 µM [activator, single point] | – |
| COc1ccc(Oc2c(Cl)cnn(-c3ccc(Cl)c(Cl)c3)c2=O)cc1 | inconclusive: 35.5 µM [activator, single point] | – |
| N#C/C(=C\c1cccc([N+](=O)[O-])c1)c1nnc2n1CCCCC2 | inconclusive: 11.2 µM [inhibitor, partial curve] | – |
| CCS(CC)=NS(=O)(=O)c1ccc(NC(C)=O)cc1 | inactive | – |
| CCOC(=O)c1cn(-c2ccccc2)nc1-c1cccnc1 | inconclusive: 5.62 µM [activator, single point] | – |
| COc1cc(C(=O)NC(=S)NNC(=O)[C@H]2C[C@@H]2c2ccccc2)cc(OC)c1OC | active: 11.2 µM | – |
| Cc1ccccc1N(C(=O)Cc1cccs1)C(C(=O)NCC1CCCO1)c1cccnc1 (centres undefined) | inconclusive: 4.47 µM [activator, partial curve] | – |
| C=CCNC(=O)NC(=O)COC(=O)c1ccccc1Sc1ccc(C(F)(F)F)cc1[N+](=O)[O-] | inconclusive: 10 µM [activator, partial curve, poor fit] | – |
| COc1ccc(Cl)cc1S(=O)(=O)NC(C)C(=O)NCc1cccnc1 (centres undefined) | inactive | – |
| Cc1ccc(Cc2c(C)c(C#N)c3[nH]c4ccccc4n3c2=O)cc1 | inconclusive: 3.16 µM [activator, full curve] | – |
| C#CCn1cc(C=C2C(=O)c3ccccc3C2=O)c2ccccc21 | inconclusive: 0.794 µM [activator, full curve] | – |
| O=c1ccc2c(o1)/C(=C/C=C(Cl)Cl)CCC2 | inconclusive: 3.98 µM [activator, full curve] | – |

| SMILES | Potency | activity change, negative = inhibition |
| --- | --- | --- |
| CCCS(=O)(=O)c1ncc(Cl)c(C(=O)Nc2ccc(S(=O)(=O)Nc3ncccn3)cc2)n1 | inconclusive: 25.1 µM [inhibitor, single point] | – |
| COc1ccc(C2Nc3ccccc3C(=O)N2c2ccccc2)cc1Cn1cc([N+](=O)[O-])cn1 (centres undefined) | inconclusive: 22.4 µM [activator, partial curve] | – |
| COc1cc(OC)cc(C(=O)NC(=S)Nc2ccc(N3CCCC3)cc2)c1 | active: 3.16 µM | – |
| COc1ccccc1OCCC(=O)OCC(=O)Nc1cccc(Br)c1 | inconclusive: 3.55 µM [activator, full curve] | – |
| Cc1ccccc1N(CC(=O)Nc1ccccc1C(=O)NCc1ccco1)S(=O)(=O)c1ccccc1 | inconclusive: 17.8 µM [activator, partial curve, poor fit] | – |
| CC(C)N(Cc1ccccc1)C(=S)Nc1ccc(OC(F)F)cc1 | inconclusive: 22.4 µM [inhibitor, single point] | – |
| O=C(NC(=S)NC1CCCCC1)c1ccc(Cl)cc1 | inconclusive: 25.1 µM [activator, single point] | – |
| COc1cc(CN2CCNC(=O)C2CC(=O)N2CCCN(C(C)=O)CC2)cc(OC)c1 (centres undefined) | inconclusive: 11.2 µM [inhibitor, partial curve] | – |
| COc1ccc(-c2cc3nc4n(c(=O)c3s2)CCC4)cc1 | inconclusive: 3.98 µM [inhibitor, full curve, poor fit] | – |
| Cc1[nH]n(-c2ccccc2)c(=O)c1N=Nc1cccc(S(=O)(=O)N2CCOCC2)c1 | active: 7.94 µM | – |
| Cc1c(OCc2ccc([N+](=O)[O-])cc2)ccc2c3c(c(=O)oc12)CCC3 | inconclusive: 1.12 µM [activator, full curve] | – |
| CCN1CCN(CCCNC(=O)c2ccc3c(=O)n(CCc4ccccc4)c(=O)[nH]c3c2)CC1 | inactive | – |
| Cc1ccc2oc(C(=O)N3CCN(c4cccc(C)n4)CC3)c(C)c2c1 | inactive | – |
| O=C(COc1ccccc1/C=C1/NC(=O)NC1=O)Nc1ccccc1 | inactive | – |
| Cc1ccc2cc(C#N)c(N3CCCN(C(=S)NCCCN(C)C)CC3)nc2c1 | inactive | – |
| NS(=O)(=O)c1ccc(CCNCc2cc(Cl)ccc2OCc2ccccc2)cc1 | inconclusive: 11.2 µM [activator, partial curve] | – |
| O=C(NNC(=S)NC(=O)c1cccnc1)c1ccc(Cl)cc1 | active: 10 µM | – |
| Oc1ccccc1-c1cc(-c2cccc(F)c2)n[nH]1 | inconclusive: 14.1 µM [inhibitor, single point] | – |
| COc1ccc(CCNC(=O)CSc2nc3[nH]ncc3c(=O)n2-c2ccc(Br)cc2)cc1OC | inconclusive: 1.78 µM [activator, full curve, poor fit] | – |
| CCOc1ccc(NC(=O)C2C(C(=O)O)C3(Cl)C(Cl)=C(Cl)C2(Cl)C3(Cl)Cl)cc1 (centres undefined) | inactive | – |
| COc1ccc(CNC(=O)C(c2ccc(C)o2)N(C(=O)c2snc(C(N)=O)c2N)c2ccccc2OC)cc1 (centres undefined) | inconclusive: 14.1 µM [activator, partial curve] | – |
| O=C(NNC1=C(C(=O)C(F)(F)F)CCC1)c1ccccc1O | active: 11.2 µM | – |
| Cc1nn(C)c(C(=O)NNC(=O)Nc2cccc(C(F)(F)F)c2)c1Cl | inconclusive: 25.1 µM [activator, partial curve, poor fit] | – |

| SMILES | Potency | activity change, negative = inhibition |
| --- | --- | --- |
| Cc1cc(=O)oc2c1ccc1oc(/C(=N/O)c3ccccc3)c(C)c12 | inconclusive: 0.891 µM [inhibitor, full curve, poor fit] | – |
| O=C(N/N=C/c1ccc(F)c(F)c1)c1cc2c(s1)-c1ccccc1CC2 | inconclusive: 8.91 µM [inhibitor, single point] | – |
| Cc1cccnc1Nc1nc(-c2ccc(O)cc2O)cs1 | active: 6.31 µM | – |
| O=[N+]([O-])c1ccc(N/N=C/c2ccccc2O)cc1 | inconclusive: 15.8 µM [activator, partial curve, poor fit] | – |
| Nc1nc2ccc(OC(F)(F)F)cc2s1 | inconclusive: 2.82 µM [activator, single point] | – |
| COc1ccc(C(=O)N2CCOC23CCN(c2ncccn2)CC3)cc1 | inactive | – |
| Cc1nnc(SCC(=O)NC2CCCc3c2cnn3-c2ccc(F)cc2F)o1 (centres undefined) | inconclusive: 3.55 µM [activator, partial curve] | – |
| Cc1cccc(CCNC(=O)c2cc(S(=O)(=O)N3CCCC3)cn2C)c1 | inconclusive: 8.91 µM [activator, partial curve] | – |
| O=C(N/N=C/c1ccc[nH]1)c1cccc([N+](=O)[O-])c1 | active: 7.94 µM | – |
| Cc1ccc2c(C(=O)CN3CCC4(CC3)OCCO4)c(C)[nH]c2c1 | inactive | – |
| COc1cccc(-n2ccnc2SCC(=O)Nc2ccccc2F)c1 | inconclusive: 35.5 µM [inhibitor, single point] | – |
| O=C(Cc1ccccc1)N1CCN(c2ccccc2F)CC1 | inactive | – |
| COc1ccc(-c2cn3c4c(sc3n2)CCCC4)cc1 | active: 11.2 µM | – |
| COc1cc(/C=N/Nc2snc(SC)c2C#N)cc(OC)c1OC | inconclusive: 35.5 µM [inhibitor, single point] | – |
| COc1cccc(C(=O)/C=C/Nc2cc(C)ccc2O)c1 | inconclusive: 35.5 µM [inhibitor, single point] | – |
| O=C(CCc1ccccc1)N1CCCC(Nc2ccc(F)cc2)C1 (centres undefined) | inactive | – |
| Cn1cc(C(=O)N/N=C/C(Br)=C\c2ccccc2)ccc1=O | inconclusive: 22.4 µM [inhibitor, single point] | – |
| Oc1ccccc1C(=S)N1CCCCCC1 | inconclusive: 35.5 µM [activator, single point] | – |
| CCC(=O)N1CCN(c2nc(-c3ccc(Cl)cc3)cs2)CC1 | inconclusive: 20 µM [activator, single point] | – |
| Cc1ccc(C(=O)Nc2ncn[nH]2)cc1 | inconclusive: 20 µM [inhibitor, single point] | – |
| Cc1nnc2n1CCCCC2 | inactive | – |
| COc1ccc(C(=O)NCC(C)(C)SCc2c(C)cc(C)cc2C)cc1 | inconclusive: 0.316 µM [activator, full curve, poor fit] | – |
| COc1ccc(OC)c(-c2cc(C3CCN(C(=O)OC(C)(C)C)CC3)[nH]n2)c1 | inconclusive: 22.4 µM [inhibitor, single point] | – |

Grouped by structure: the compounds so far with a tert-butyl group (3)

| SMILES | Potency | activity change, negative = inhibition |
| --- | --- | --- |
| C/C(=N\NC(=O)COc1ccc(C(C)(C)C)cc1)c1cc2ccccc2o1 | inconclusive: 10 µM [inhibitor, partial curve, poor fit] | – |
| CC(C)(C)CC(C)(C)NC(=O)Nc1cccc([N+](=O)[O-])c1 | inconclusive: 14.1 µM [activator, single point] | – |
| COc1ccc(OC)c(-c2cc(C3CCN(C(=O)OC(C)(C)C)CC3)[nH]n2)c1 | inconclusive: 22.4 µM [inhibitor, single point] | – |
